Data set [1] is described as follows: general procedure: Fmoc solid-phase peptide synthesis; Novasyn-TGR (dimethoxybenzhydrylamine); dipeptide pentafluorophenyl esters with HOBt. The note with it: whole synthesis, scale 5 μmol.
The nature of data set [2]: Fmoc solid-phase peptide synthesis; Novasyn-TGR (dimethoxybenzhydrylamine); dipeptide pentafluorophenyl esters with HOBt. The note with it: whole synthesis, scale of the general procedure 5 μmol.

Results on three substances are retold here after US6713603B2 (Isis Innovation Limited, priority 1996, dated 2004).

In data set [1], H-[D-Ser-D-Pro(cis-4-T)]10LysNH2 had an isolated yield of 16%.
Regarding H-[Gly-D-Pro(trans-4-T)]10-Lys-NH2, the difficulty met result in data set [2] is given as “A possible reason for the low yield in the case of HBTU activation”.
As for H-[L-Ser-D-Pro(cis-4-T)]10LysNH2, the isolated yield in data set [1] was found to be 28%.
